# The list shows a part of the results, in another mix than the full data. For some of these results: At the low end of the ranking the order means little. Some of the results follow. For some of these results: The exact form of the protein is not confirmed.
# Assays:
# [1] = target: T1, ETS1 (UniProt P14921); experiment: DAPPL (digital affinity profiling via proximity ligation, sequencing); conditions: 10 mM Tris-HCl pH 7.5, 50 mM NaCl, 1 mM DTT, 4% glycerol, room temperature, 30 min; GST-TFs on glutathione beads, 16-mer random dsDNA library, 0.1% …; high values mean tight binding; double strand, one strand shown; scale: fold enrichment (6-mer frequency, TF over GST control)
# T1 sequence: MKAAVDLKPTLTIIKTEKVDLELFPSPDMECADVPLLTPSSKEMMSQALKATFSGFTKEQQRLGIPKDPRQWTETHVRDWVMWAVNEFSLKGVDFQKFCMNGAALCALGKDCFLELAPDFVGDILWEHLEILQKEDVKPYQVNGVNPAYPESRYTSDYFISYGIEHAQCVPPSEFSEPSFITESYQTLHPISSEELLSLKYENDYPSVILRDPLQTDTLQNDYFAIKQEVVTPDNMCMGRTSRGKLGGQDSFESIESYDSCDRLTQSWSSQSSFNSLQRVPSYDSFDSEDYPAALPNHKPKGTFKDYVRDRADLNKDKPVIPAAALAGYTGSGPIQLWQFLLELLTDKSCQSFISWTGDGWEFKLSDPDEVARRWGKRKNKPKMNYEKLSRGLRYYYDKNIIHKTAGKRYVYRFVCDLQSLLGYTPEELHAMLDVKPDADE
# [2] = target: T2, SPDEF (UniProt O95238); experiment: as above; conditions: 10 mM Tris-HCl pH 7.5, 50 mM NaCl, 1 mM DTT, 4% glycerol, room temperature, 30 min; GST-TFs on glutathione beads, 16-mer random dsDNA library, 0.1% …; high values mean tight binding; double strand, one strand shown; scale: fold enrichment (6-mer frequency, TF over GST control)
# T2 sequence: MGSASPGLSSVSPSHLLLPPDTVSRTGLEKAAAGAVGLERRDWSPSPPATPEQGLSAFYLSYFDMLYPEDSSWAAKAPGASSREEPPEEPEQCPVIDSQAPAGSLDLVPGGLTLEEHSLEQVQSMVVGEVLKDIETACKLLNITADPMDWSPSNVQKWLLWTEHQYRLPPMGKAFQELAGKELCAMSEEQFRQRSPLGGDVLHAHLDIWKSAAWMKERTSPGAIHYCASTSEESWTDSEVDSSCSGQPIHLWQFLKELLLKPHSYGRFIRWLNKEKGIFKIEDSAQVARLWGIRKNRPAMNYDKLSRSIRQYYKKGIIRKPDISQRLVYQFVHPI
Sequence,binding signal [1],binding signal [2]
GGTCTT,1.13,1.12
CTTATG,1.51,1.53
GAACAC,1.13,1.26
CCTACT,1.68,1.49
GGTTTA,1.03,1.1
TGTTAA,1.17,1.09
CCAATC,1.23,1.16
AACCAT,1.24,1.11
CACGCT,1.3,1.35
TGGATG,1.49,1.53
ATGACG,1.44,1.45
GTGCTC,1.24,1.05
TCTTAC,1.33,1.36
AGACCT,1.08,0.91

# Full records from above. Order of values: binding signal [1] | binding signal [2]
# CCAATC as listed: 1.23 | 1.16
# GGTTTA as listed: 1.03 | 1.1

# From publication PMC7862700
